Results are given as percent effect. How 0% and 100% were set is not recorded. Most values in the screen are low, and negative values occur. This is an unselected part of the compounds tested.

Mtb growth Cornell: 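Whole-cell assay for inhibitors of Mycobacterium tuberculosis growth, labelled Cornell in the record; the read-out is not stated. The concentration is filed as 10 mM, unlikely as a test dose, so the dose is not known. Higher means stronger inhibition (inferred from two other growth screens of the library). Of about 53,000 compounds tested this way, about 900 (1.7%) reached 50% or more in at least one test.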
Mtb heat-shock: 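Assay on Mycobacterium tuberculosis, filed only as a heat shock assay from Cornell; the read-out is not stated. The concentration is filed as 10 mM, unlikely as a test dose, so the dose is not known. Direction is inferred from retests: higher values go with stronger inhibition. Of about 69,000 compounds tested this way, about 930 (1.4%) reached 50% or more in at least one test.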

For C/C=C(\C)CN1C[C@H](NC(=O)CCOC)[C@@H](c2ccc(C)o2)C1 the result was Mtb growth Cornell: 5.196%; Mtb heat-shock: 1.586%. For Cn1ncc2c(NCC3CCS(=O)(=O)C3)nc(C3CCCC3)nc21 (stereo not drawn) the result was Mtb growth Cornell: 18.41%; Mtb heat-shock: 19.45%. CN(Cc1cc[nH]n1)C(=O)c1ccc2c(c1)nc(N1CC[C@H](O)C1)n2C gave Mtb heat-shock: 2.154%. Result for CC1(C)CN(C(CNS(C)(=O)=O)c2ccc(Cl)cc2)CCO1 (stereo not drawn) was Mtb growth Cornell: 11.35%; Mtb heat-shock: -17.29%. CCN(C(=O)COc1nc(C(C)(C)C)no1)C1CC1 read Mtb growth Cornell: 8.141%; Mtb heat-shock: -9.449%. For CN(Cc1ccco1)Cc1cncc2c1CCN(c1ncccn1)C2.Cl.Cl the result was Mtb growth Cornell: 4.193%; Mtb heat-shock: 15.15%. With Cc1nccn1CCCn1cncc1-c1ccc2c(c1)CC(C)N2C.Cl (stereo not drawn) the screen gave Mtb growth Cornell: 20.63%; Mtb heat-shock: 48.58%. For Cc1nn(CC(O)CN2CCc3ccccc3C2)c(=O)c(C#N)c1C (stereo not drawn) the result was Mtb growth Cornell: 4.739%; Mtb heat-shock: -19.73%.

For Cc1cc(C2CCCN(C(=O)COc3cc(C)on3)C2)n[nH]1 (stereo not drawn) the result was Mtb growth Cornell: -5.303%; Mtb heat-shock: -31.11%. Result for CCc1nc(CN2CCCC2C(=O)NC)cs1 (stereo not drawn) was Mtb growth Cornell: 25.55%; Mtb heat-shock: -10.95%. O=S1(=O)COCCN1Cc1cccc(Cl)c1 read Mtb heat-shock: -4.56%. COc1ccc(C(=O)NS(=O)(=O)c2ccc(CNC(C)=O)s2)cc1 read Mtb growth Cornell: -4.21%; Mtb heat-shock: -6.279%. COc1cccc(CNC(=O)c2cc(C)nc(N3CCCC3)n2)c1 gave Mtb heat-shock: -2.627%. With COC(=O)c1cc(OC)c(OC)cc1N(C)S(C)(=O)=O the screen gave Mtb growth Cornell: -24.42%; Mtb heat-shock: -15.14%. CC(=O)Nc1nc(CN2CCCC2Cn2cccn2)cs1 (stereo not drawn) read Mtb growth Cornell: -2.037%; Mtb heat-shock: -5.465%. Result for [H][C@]12CC[C@]([H])(CN(C(=O)c3ccccc3)C1)N(Cc1cc(F)ccc1Cl)C2 was Mtb growth Cornell: 16.55%; Mtb heat-shock: -5.627%.

With Cn1ccnc1CN1CCC(c2ccnc(-c3cccc(O)c3)c2)C1 (stereo not drawn) the screen gave Mtb growth Cornell: -0.6399%; Mtb heat-shock: -24.06%. Result for [H][C@]12CC[C@@]3(N=C(c4ccccc4)NC3=O)[C@@]1([H])CN(Cc1nccs1)C2 was Mtb growth Cornell: -5.036%; Mtb heat-shock: -1.676%. Cc1nn(C)c(C)c1-c1ccc(=O)n(C(C)C(=O)NC2CCCCC2)n1 (stereo not drawn) read Mtb growth Cornell: -0.2925%; Mtb heat-shock: 20.48%. For O=C(c1ccc(-c2cc[nH]n2)cc1)N1CC[C@H](CO)[C@H](O)C1 the result was Mtb growth Cornell: 3.046%; Mtb heat-shock: 6.998%. CN1C(=O)CC(c2ccncc2)C12CCN(c1ncccn1)CC2.O=C(O)C(F)(F)F (stereo not drawn) gave Mtb growth Cornell: -18.27%; Mtb heat-shock: 17.08%. With COc1cc(-c2n[nH]c(CN)n2)cc(OC)c1OC the screen gave Mtb growth Cornell: -6.173%; Mtb heat-shock: -16.81%. CCN(CC)CCNC(=O)c1nn(CC)cc1Cl gave Mtb heat-shock: -15.5%. CS(=O)(=O)N1CCOC2(CCCN(c3cnccn3)C2)C1.O=C(O)C(F)(F)F (stereo not drawn) gave Mtb growth Cornell: -63.8%; Mtb heat-shock: 10.82%.

With O=C1CC(c2ccc3c(c2)OCO3)c2cn[nH]c2N1 (stereo not drawn) the screen gave Mtb heat-shock: -22.18%. Result for COc1ccc(NC2CCN(C3CC3)C2=O)cn1 (stereo not drawn) was Mtb growth Cornell: 18.71%; Mtb heat-shock: 12.62%. With CC(C)c1cc(C2CCN(C(=O)Cn3nc4ccccc4n3)CC2)[nH]n1 the screen gave Mtb growth Cornell: -8.151%; Mtb heat-shock: -22.45%. Result for O=C1CCC(=O)c2oc3ccc(Cl)cc3c2N1 was Mtb growth Cornell: 17.75%; Mtb heat-shock: -13.4%. COc1cc2c(cc1C(=O)N1CC(c3ccncc3)C1)CCC2 read Mtb growth Cornell: 26.23%; Mtb heat-shock: -25.78%. COc1cccc(CN2CC(O)CN(C(=O)C3CCC3)CC2=O)c1OC (stereo not drawn) read Mtb growth Cornell: -4.962%; Mtb heat-shock: 42.95%. With CN(CC(=O)Nc1ccc(Br)cn1)C(=O)Cc1ccc(O)cc1 the screen gave Mtb heat-shock: 1.86%. With CCN(CC)C(=O)NCCc1ccn(-c2ccccc2)n1 the screen gave Mtb heat-shock: -48.44%.

CCc1ncc(CN2CCC3(CCCN(CC4CCC4)C3)C2)cn1 (stereo not drawn) read Mtb growth Cornell: 29.47%; Mtb heat-shock: 17.55%. Result for c1cc(C2CCN(c3cncnc3)CC2)ccn1 was Mtb growth Cornell: 13.25%; Mtb heat-shock: -10.7%. For CCC[C@@H]1CN(Cc2ccc(C(F)(F)F)nc2)C[C@H]1NS(C)(=O)=O the result was Mtb growth Cornell: -5.985%; Mtb heat-shock: 1.938%. For c1cnn(CC2CN(Cc3nc(-c4ccsc4)no3)CCO2)c1 (stereo not drawn) the result was Mtb heat-shock: -8.346%. For Cc1cnc(CNC(=O)NCCOc2ncccc2Cl)s1 the result was Mtb growth Cornell: -28.99%; Mtb heat-shock: 8.079%. Result for CC(=O)c1ccc(S(=O)(=O)NCC2CCN(c3cnccn3)CC2)cc1 was Mtb heat-shock: -9.222%. With Cc1nc(NC(=O)CNC(=O)c2c(F)cccc2Cl)n[nH]1 the screen gave Mtb growth Cornell: -20.69%; Mtb heat-shock: -10.37%. CCn1cc(NC(=O)NCC(C)N2CCCC2)cn1 (stereo not drawn) gave Mtb heat-shock: -20.72%.

Result for CCc1cc(NC2CCOCC2)n2nc(C)c(C)c2n1 was Mtb growth Cornell: 14.02%; Mtb heat-shock: -7.332%. With Cc1nc2ncccn2c1C(=O)N1CCc2[nH]cnc2C1 the screen gave Mtb heat-shock: 11.51%. Result for O=C(NCc1cccnc1)NC1CCCN(c2ncccn2)C1 (stereo not drawn) was Mtb growth Cornell: 13.51%; Mtb heat-shock: -6.353%. With Cc1ccccc1C1CCN(CCn2cc(-c3nccs3)nn2)C1 (stereo not drawn) the screen gave Mtb growth Cornell: -2.823%; Mtb heat-shock: 59.14%.

Repeated from the top, 2 entries:

structure,Mtb growth Cornell,Mtb heat-shock
C/C=C(\C)CN1C[C@H](NC(=O)CCOC)[C@@H](c2ccc(C)o2)C1,5.196,1.586
Cn1ncc2c(NCC3CCS(=O)(=O)C3)nc(C3CCCC3)nc21 (stereo not drawn),18.41,19.45

From ChEMBL document CHEMBL3988442, “University of Dundee, Small-Polar-MMV Screening Library” (2021).